Patent US9296810 (Novartis, dated 2016)
These are yes or no findings as the source states them, for the method shown. Some results given as binding are weak or reduced against the parent protein; the word gives no strength. For some of these results: Sequences can lack the tags named with a protein.

Sequences of proteins named here, by UniProt entry; tags and fusion partners are left off. Residues count along the entry.
UniProt P35968, residues 20-764: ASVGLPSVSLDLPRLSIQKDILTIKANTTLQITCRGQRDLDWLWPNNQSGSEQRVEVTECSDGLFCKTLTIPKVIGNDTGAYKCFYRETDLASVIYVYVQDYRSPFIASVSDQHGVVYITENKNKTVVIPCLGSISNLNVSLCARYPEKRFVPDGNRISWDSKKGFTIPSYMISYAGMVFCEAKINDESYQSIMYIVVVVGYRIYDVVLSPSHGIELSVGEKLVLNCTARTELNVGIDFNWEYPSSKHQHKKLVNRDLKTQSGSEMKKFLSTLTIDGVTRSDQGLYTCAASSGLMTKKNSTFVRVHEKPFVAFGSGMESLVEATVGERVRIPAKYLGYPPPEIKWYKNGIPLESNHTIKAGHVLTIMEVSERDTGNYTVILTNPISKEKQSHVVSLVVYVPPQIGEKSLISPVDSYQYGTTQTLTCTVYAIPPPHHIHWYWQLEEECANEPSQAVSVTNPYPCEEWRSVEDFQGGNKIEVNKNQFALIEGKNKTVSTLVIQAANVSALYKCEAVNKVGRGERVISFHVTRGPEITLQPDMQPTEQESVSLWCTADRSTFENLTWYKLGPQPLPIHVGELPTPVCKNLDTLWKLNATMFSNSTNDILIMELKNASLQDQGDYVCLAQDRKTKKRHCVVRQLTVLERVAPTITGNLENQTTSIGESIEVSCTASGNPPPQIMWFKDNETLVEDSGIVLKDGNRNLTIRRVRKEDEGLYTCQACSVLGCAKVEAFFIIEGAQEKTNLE

Tests used:
hen egg white lysozyme = molecular target: T1, hen egg white lysozyme (hen, UniProt P00698 19-147, biotinylated (HEL-b); sites not stated); assay: yeast display selection
T1 construct: also called lyzozyme; HEL-b (biotinylated)

VEGFR2-Fc fusion protein [1] = molecular target: VEGFR2-Fc fusion protein (UniProt P35968); assay: sandwich ELISA: VEGFR2-Fc immobilized, cleared lysate, then HSA, anti-HSA-HRP detection
VEGFR2-Fc fusion protein [2] = molecular target: VEGFR2-Fc fusion protein (UniProt P35968); assay: sandwich ELISA
VEGFR2-Fc fusion protein [3] = molecular target: VEGFR2-Fc fusion protein (UniProt P35968); assay: Biacore T100
VEGFR2-Fc fusion protein [4] = molecular target: VEGFR2-Fc fusion protein (UniProt P35968); assay: sandwich ELISA (FIG. 13)
VEGFR2-Fc fusion protein [5] = molecular target: VEGFR2-Fc fusion protein (UniProt P35968); assay: Biacore T100, VEGFR2-huFc captured by anti-hu IgG Fc antibody on CM5, clone 87 at 100 nM and 200 nM
VEGFR2-Fc fusion protein [6] = molecular target: VEGFR2-Fc fusion protein (UniProt P35968); assay: Biacore (FIG. 14)

Measured: binding

B1: SEQ ID NO 81 (designed binder)
chain: VSDVPRDLEVVAATPTSLLISWDAPAVTVRYYRITYGESHHYGPQEFTVPGSKSTATISLLGAHVDYTITVYAVTGRGESPASSKPISINYHGLY
binds: hen egg white lysozyme

B2: clone 89 (bispecific Fn3-based binding molecule; VEGFR2/Bottom side SEQ ID NO: 8 merged molecule) (designed binder)
chain: MGVSDVPRDLEVVAATPTSLLISWRHPHFPTRYYRITYGRTDAKSTRKEFTVPLQPPLATIGELKRGRDYTITVYAVTKERNGRELFTPISINYRPEKENLYFQGHHHHHH
notes: the entry ends in ENLYFQG-HHHHHH; also called VEGFR2-HAS; single bispecific fibronectin molecule
binds: VEGFR2-Fc fusion protein [1] | VEGFR2-Fc fusion protein [2] | VEGFR2-Fc fusion protein [3] | VEGFR2-Fc fusion protein [4]

B3: clone 87 (multispecific Fn3-based binding molecule; VEGFR2 top side binder fused to bottom side sequence 8 from FIG. 7 with GS linker) (designed binder)
chain: MGVSDVPRDLEVVAATPTSLLISWRHPHFPTRYYRITYGETGGNSPVQEFTVPLQPPLATISGLKPGVDYTITVYAVTKERNGRELFTPISINYRTGGGGSGGGGSVSDVPRDLEVVAATPTSLLISWDAPAVTVRYYRITYGRTDAKSTRKEFTVPGSKSTATIGELKRGRDYTITVYAVTGRGDSPASSKPISINYRPEKENLYFQGHHHHHH
notes: ELISA used cleared lysate, Biacore soluble protein; also called Fibronectin clone 87 (multispecific)
not listed: hen egg white lysozyme | VEGFR2-Fc fusion protein [3]
binds: all other assays above
